Measurements: patent publication US6316594A, “Antimicrobial peptide isolated from parasilurus asotus and its uses” (priority 1998, dated 2001)
In brackets after ≈: the same amount, converted by molar mass. Not every detail of the peptide structures is certain; ends, links or a residue may be inferred. Peptide text beside a SMILES is read from it.

Experiments:
[1] = tested on: Saccharomyces cerevisiae ATCC 44774; assay: MIC, microdilution in 96-well plate; assay type: cell-based; conditions: overnight 37° C., 3% TSB
Description: (§1) All of the microorganisms used in the invention were obtained from the American Type Culture Collection (ATCC) Used were Bacillus subtilis ATCC 62037, Staphylococcus aureus ATCC 15752, Streptococcus mutans ATCC 25175, Pseudomonas putida ATCC 17426, Escherichia coli ATCC 27325, Salmonella typhimurium ATCC 15277, Seratia sp. ATCC 21074, Cryptococcus neoformans ATCC 34881, Saccharomyces cerevisiae ATCC 44774 and Candida albicans ATCC 10231.
(§2) The parasin I and its derivatives obtained in Example I were lyophilized, resuspended in water and assayed for antimicrobial activity against B. subtilis ATCC 62037. The purity of the isolated peptides was analyzed by reverse-phase HPLC and MALDI-MS (Kratos Kompact MALDI, England). The antimicrobial activity of the samples was determined during each purification step by the radial diffusion assay using B. subtilis ATCC 62037 according to the method of Lehrer et al. ((1991) J. Immunol. Methods, 137, 167-173). A 20 ml culture of B. subtilis ATCC 62037 cell in mid-logarithmic phase was washed with 10 mM sodium phosphate buffer (NAPB), pH 7.4, at […], and resuspended in 10 ml of the same buffer. A cell suspension containing 1×10^6 bacterial colony forming units (CFUs) was added to 6 ml of an underlayer agar (10 mM sodium phosphate, 1% (v/v) trypticase soy broth (TSB), 1% (w/v) agarose, pH 6.5) and this resulting mixture was poured into a Petri dish. Samples were added, at an amount of 5 μl, directly in 3-mm wells which were made on the solidified underlayer agar. After incubation for 3 hours at 37° C., the underlayer agar was covered with a nutrient-rich top agar overlay (6% (w/v) TSB, 1% (w/v) agarose) and incubated overnight at 37° C. Antimicrobial activity was determined by observing the zone of suppression of bacterial growth around the 3-mm wells. The minimal inhibitory concentrations (MICs) of the isolated peptide against the microorganisms were determined as described by Moore et al. ((1991) J. Biol. Chem., 266, 19851-19857). 100 μl microorganism suspensions (10^5 CFU/ml) in 3% (w/v) TSB were mixed with serial two-fold dilutions of the isolated peptide in a sterilized 96-well microtiter plate (Nunc, Denmark). The final concentration of the peptide ranged 0.5-200 μg/ml. The 96-well plate was incubated overnight at 37° C. and the inhibition of growth was determined by measuring the absorbance at 620 nm on a microplate reader, such as that sold by B10-Rad, U.S.A., under the brand name of Model 550. The MIC was defined as the lowest concentration of peptide that inhibited growth. In respect to the test for antimicrobial activity, 10 different microorganisms, including Gram-negative bacteria, Gram-positive bacteria and fungi were used.

Serratia sp. = assay: MIC, microdilution in 96-well plate; assay type: cell-based; conditions: overnight 37° C., 3% TSB
Description: as §1, §2

[2] = tested on: Streptococcus mutans ATCC 25175; assay: MIC, microdilution in 96-well plate; assay type: cell-based; conditions: overnight 37° C., 3% TSB
Description: as §1, §2

[3] = tested on: Escherichia coli ATCC 27325; assay: MIC, microdilution in 96-well plate; assay type: cell-based; conditions: overnight 37° C., 3% TSB
Description: as §1, §2

[4] = tested on: Bacillus subtilis ATCC 62037; assay: MIC, microdilution in 96-well plate; assay type: cell-based; conditions: overnight 37° C., 3% TSB
Description: as §1, §2

[5] = tested on: Pseudomonas putida ATCC 17426; assay: MIC, microdilution in 96-well plate; assay type: cell-based; conditions: overnight 37° C., 3% TSB
Description: as §1, §2

[6] = tested on: Cryptococcus neoformans ATCC 34881; assay: MIC, microdilution in 96-well plate; assay type: cell-based; conditions: overnight 37° C., 3% TSB
Description: as §1, §2

[7] = tested on: Staphylococcus aureus ATCC 15752; assay: MIC, microdilution in 96-well plate; assay type: cell-based; conditions: overnight 37° C., 3% TSB
Description: as §1, §2

[8] = tested on: Candida albicans ATCC 10231; assay: MIC, microdilution in 96-well plate; assay type: cell-based; conditions: overnight 37° C., 3% TSB
Description: as §1, §2

[9] = tested on: Salmonella typhimurium ATCC 15277; assay: MIC, microdilution in 96-well plate; assay type: cell-based; conditions: overnight 37° C., 3% TSB
Description: as §1, §2

B. subtilis ATCC 62037 = assay: Radial diffusion assay of HPLC peaks; assay type: cell-based, Bacillus subtilis; conditions: HPLC peaks of eluate from wounded catfish skin
[10] = tested on: Gram-negative bacteria, Gram-positive bacteria and fungi; assay: MIC comparison over the 10 microorganisms of Table 2; assay type: cell-based; conditions: MIC data of Table 2

CC(C)[C@H](NC(=O)[C@H](CCCCN)NC(=O)CNC(=O)CNC(=O)[C@H](CCC(N)=O)NC(=O)[C@H](CCCCN)NC(=O)CNC(=O)[C@H](CCCNC(=N)N)NC(=O)CNC(=O)[C@@H](N)CCCCN)C(=O)N[C@@H](CCCNC(=N)N)C(=O)N[C@@H](C)C(=O)N[C@@H](CCCCN)C(=O)N[C@@H](C)C(=O)N[C@@H](CCCCN)C(=O)N[C@H](C(=O)N[C@@H](CCCNC(=N)N)C(=O)N[C@@H](CO)C(=O)N[C@@H](CO)C(=O)O)[C@@H](C)O [Parasin I, Lys-Gly-Arg-Gly-Lys-Gln-Gly-Gly-Lys-Val-Arg-Ala-Lys-Ala-Lys-Thr-Arg-Ser-Ser] (H-KGRGKQGGKVRAKAKTRSS-OH)
MIC [1]: 2 µg/mL (≈ 1 µM) | MIC (Serratia sp.): 4 µg/mL (≈ 2 µM) | MIC [2]: 1 µg/mL (≈ 0.5 µM) | MIC [3]: 1 µg/mL (≈ 0.5 µM) | MIC [4]: 1 µg/mL (≈ 0.5 µM) | MIC [5]: 2 µg/mL (≈ 1 µM) | MIC [6]: 2 µg/mL (≈ 1 µM) | MIC [7]: 2 µg/mL (≈ 1 µM) | MIC [8]: 2 µg/mL (≈ 1 µM) | MIC [9]: 2 µg/mL (≈ 1 µM) | antimicrobial activity of HPLC peak (B. subtilis ATCC 62037): showed antimicrobial activity | antimicrobial activity relative to peak c (B. subtilis ATCC 62037): over 200 times | potency relative to buforin I (MIC data) [10]: up to 8 times | potency relative to magainin 2 (MIC data) [10]: 12-100 times
